The supplement of paper PMC10849652
This is one part of the list.

Sequences of proteins named here, by UniProt entry; tags and fusion partners are left off. A change or cut given only in a name is not applied to a line headed by its entry.
UniProt Q96LZ7: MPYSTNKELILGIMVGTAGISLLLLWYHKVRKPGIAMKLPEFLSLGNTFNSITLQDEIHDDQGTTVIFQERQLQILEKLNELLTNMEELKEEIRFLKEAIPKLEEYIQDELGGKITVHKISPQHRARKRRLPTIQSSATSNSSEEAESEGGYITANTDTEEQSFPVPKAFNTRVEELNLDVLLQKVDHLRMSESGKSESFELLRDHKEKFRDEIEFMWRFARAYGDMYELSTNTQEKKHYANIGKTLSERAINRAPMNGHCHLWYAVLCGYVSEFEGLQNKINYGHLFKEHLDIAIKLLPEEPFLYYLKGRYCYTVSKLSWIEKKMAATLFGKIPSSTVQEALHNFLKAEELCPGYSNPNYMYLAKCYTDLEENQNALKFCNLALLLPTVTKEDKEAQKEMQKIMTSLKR
UniProt Q9P2R6: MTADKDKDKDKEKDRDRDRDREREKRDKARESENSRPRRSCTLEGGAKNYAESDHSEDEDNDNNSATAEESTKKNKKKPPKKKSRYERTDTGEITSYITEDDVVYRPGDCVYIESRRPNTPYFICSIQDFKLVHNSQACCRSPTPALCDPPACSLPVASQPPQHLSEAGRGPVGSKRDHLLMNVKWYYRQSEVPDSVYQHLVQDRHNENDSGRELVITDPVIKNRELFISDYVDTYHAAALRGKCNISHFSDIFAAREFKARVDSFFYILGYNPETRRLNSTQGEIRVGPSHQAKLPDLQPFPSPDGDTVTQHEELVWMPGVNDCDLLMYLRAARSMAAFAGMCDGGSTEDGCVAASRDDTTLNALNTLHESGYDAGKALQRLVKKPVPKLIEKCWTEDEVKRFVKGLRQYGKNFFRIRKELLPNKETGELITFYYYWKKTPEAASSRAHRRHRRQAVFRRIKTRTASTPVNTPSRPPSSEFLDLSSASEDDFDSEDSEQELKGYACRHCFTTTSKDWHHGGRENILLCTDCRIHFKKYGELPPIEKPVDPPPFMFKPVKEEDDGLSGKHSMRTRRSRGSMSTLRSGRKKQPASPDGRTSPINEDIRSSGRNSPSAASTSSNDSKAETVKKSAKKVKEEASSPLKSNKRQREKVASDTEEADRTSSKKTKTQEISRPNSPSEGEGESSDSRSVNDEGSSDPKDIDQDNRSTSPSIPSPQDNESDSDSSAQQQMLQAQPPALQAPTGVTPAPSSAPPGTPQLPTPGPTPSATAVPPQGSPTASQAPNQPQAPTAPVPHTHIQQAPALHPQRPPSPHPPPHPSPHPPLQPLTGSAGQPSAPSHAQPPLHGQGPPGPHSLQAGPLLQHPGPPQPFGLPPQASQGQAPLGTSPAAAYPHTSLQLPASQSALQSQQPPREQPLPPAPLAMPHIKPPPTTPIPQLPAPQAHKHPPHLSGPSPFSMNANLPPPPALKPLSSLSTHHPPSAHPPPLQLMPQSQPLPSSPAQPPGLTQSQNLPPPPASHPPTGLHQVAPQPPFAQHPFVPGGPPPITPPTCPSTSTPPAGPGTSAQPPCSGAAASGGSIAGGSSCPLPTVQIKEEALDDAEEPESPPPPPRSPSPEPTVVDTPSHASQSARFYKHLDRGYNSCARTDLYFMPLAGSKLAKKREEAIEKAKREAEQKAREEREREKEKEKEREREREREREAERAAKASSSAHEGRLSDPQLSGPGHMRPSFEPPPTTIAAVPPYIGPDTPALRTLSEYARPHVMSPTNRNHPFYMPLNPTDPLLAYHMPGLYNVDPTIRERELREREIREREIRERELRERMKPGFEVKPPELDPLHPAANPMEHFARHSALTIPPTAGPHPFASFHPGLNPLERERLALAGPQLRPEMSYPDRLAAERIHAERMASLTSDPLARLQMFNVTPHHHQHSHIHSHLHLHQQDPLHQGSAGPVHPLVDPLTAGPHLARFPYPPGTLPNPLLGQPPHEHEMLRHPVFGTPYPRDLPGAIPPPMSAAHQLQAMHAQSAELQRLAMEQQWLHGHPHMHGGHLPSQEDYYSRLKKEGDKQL
UniProt Q8WU17: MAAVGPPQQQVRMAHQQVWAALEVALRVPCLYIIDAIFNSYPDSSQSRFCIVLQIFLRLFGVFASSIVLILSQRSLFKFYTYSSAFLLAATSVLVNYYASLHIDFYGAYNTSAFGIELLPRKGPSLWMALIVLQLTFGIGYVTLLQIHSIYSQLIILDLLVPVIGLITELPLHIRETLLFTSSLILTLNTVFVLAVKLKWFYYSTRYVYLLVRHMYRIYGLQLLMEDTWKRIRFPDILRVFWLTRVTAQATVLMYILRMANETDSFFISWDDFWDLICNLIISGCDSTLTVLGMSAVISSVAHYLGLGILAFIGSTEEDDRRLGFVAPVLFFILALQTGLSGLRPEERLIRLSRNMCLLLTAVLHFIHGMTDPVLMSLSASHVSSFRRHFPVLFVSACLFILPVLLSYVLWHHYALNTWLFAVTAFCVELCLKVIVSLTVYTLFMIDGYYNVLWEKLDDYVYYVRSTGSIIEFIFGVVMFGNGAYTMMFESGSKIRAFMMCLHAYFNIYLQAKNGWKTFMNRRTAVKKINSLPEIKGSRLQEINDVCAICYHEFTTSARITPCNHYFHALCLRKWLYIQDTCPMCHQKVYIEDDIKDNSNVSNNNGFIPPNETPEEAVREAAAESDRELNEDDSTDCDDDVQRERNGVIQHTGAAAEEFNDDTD
UniProt A6NEQ0: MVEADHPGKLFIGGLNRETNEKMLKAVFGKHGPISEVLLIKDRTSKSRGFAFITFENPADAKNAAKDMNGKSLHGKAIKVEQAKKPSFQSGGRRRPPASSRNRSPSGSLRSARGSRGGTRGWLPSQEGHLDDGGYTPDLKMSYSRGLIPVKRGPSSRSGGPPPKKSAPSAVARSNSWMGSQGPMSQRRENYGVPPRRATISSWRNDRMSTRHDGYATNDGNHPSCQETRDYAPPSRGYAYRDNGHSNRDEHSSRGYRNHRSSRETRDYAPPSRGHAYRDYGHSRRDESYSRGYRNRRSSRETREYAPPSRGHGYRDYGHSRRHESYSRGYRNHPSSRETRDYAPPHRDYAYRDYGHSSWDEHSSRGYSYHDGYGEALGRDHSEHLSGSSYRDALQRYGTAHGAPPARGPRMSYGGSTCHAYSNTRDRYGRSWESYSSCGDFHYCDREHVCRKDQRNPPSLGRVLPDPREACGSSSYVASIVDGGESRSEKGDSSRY
UniProt Q06587: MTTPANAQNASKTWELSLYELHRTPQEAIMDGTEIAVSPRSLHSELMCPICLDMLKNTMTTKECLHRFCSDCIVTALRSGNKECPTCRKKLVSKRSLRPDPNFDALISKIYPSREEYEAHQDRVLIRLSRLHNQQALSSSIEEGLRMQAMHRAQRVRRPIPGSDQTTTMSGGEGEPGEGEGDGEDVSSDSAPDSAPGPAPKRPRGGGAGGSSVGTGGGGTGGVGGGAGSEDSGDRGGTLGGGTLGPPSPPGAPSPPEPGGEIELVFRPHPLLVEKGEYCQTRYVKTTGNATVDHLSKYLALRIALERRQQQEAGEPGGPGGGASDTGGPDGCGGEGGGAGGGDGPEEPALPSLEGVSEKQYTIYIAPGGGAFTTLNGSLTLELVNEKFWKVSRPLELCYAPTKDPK
UniProt Q6NTF9: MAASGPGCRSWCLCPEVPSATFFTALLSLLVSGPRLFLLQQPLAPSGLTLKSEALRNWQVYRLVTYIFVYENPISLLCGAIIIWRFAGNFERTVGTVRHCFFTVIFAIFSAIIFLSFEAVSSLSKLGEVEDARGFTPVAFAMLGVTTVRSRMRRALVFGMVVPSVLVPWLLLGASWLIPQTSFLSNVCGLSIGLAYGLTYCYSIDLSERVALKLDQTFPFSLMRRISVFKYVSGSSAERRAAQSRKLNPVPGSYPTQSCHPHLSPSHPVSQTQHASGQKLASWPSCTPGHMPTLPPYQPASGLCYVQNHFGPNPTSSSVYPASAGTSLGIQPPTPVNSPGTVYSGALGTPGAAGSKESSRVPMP
UniProt P34096: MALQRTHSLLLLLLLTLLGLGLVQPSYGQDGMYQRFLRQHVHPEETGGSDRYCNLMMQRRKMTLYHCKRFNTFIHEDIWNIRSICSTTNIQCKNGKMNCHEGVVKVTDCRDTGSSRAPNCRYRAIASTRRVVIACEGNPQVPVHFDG
UniProt Q96K19: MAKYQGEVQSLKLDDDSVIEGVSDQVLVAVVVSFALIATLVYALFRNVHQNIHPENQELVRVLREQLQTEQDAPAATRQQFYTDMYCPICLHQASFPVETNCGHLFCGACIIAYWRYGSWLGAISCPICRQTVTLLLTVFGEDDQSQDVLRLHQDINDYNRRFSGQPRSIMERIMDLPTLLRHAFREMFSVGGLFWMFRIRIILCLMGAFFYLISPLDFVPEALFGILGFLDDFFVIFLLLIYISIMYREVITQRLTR
UniProt O43566: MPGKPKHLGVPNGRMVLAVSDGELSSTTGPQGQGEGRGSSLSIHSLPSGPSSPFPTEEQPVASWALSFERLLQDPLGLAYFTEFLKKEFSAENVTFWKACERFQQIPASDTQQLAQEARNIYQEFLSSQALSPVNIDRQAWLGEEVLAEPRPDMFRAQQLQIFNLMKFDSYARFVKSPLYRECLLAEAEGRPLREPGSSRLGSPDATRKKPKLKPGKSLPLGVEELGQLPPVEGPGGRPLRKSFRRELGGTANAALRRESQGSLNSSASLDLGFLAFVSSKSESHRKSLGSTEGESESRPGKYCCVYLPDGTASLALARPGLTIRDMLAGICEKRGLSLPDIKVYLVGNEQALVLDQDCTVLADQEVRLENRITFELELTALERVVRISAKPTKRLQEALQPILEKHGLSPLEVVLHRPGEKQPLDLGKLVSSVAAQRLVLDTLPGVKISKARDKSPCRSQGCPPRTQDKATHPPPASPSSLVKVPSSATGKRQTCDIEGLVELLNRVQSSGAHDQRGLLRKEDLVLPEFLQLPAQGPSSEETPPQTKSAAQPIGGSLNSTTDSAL
UniProt Q96GF1: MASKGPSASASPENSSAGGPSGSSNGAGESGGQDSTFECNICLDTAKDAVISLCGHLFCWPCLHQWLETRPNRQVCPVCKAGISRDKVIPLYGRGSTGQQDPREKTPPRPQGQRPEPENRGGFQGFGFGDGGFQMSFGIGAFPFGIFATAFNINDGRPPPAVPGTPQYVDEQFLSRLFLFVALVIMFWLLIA
UniProt Q92546: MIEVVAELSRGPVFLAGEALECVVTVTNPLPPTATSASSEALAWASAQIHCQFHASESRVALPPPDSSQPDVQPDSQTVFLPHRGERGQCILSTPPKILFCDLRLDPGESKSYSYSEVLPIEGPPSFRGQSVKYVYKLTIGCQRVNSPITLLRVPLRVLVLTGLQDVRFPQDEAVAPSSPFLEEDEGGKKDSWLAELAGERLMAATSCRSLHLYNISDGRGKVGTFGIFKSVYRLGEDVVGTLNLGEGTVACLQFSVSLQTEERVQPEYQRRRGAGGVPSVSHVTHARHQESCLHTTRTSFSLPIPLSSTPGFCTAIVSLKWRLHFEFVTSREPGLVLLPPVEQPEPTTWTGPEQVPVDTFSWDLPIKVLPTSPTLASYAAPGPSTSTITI
UniProt Q9ULI2: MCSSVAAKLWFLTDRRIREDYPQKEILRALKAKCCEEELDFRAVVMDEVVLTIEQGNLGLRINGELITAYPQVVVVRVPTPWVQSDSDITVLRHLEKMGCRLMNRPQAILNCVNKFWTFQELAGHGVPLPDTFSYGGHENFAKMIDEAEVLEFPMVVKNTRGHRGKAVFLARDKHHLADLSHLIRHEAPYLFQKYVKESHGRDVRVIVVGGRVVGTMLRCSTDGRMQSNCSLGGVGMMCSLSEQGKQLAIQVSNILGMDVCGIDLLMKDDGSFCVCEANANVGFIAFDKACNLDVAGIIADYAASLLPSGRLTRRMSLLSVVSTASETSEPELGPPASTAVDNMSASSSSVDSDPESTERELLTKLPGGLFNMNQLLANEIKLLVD
UniProt Q86XS8: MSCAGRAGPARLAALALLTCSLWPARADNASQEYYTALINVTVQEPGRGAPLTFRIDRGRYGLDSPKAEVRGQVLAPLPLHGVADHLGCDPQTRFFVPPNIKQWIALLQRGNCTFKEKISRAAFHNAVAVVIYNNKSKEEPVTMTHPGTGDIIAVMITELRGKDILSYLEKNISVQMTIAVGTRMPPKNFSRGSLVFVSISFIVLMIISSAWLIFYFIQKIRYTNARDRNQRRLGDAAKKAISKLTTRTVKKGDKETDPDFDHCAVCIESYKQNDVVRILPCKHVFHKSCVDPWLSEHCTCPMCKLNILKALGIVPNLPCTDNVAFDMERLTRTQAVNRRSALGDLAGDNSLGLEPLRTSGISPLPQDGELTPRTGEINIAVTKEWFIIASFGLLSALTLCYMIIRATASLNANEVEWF

compound: COc1cc(Nc2ncc3c(n2)-c2ccc(Cl)cc2C(c2c(F)cccc2OC)=NC3)ccc1C(=O)O [alisertib]; experiment: log2 fold change, soluble protein after heating vs DMSO (PISA); higher = thermal stabilisation; K562 cells, 10 uM, 30 min; active = over 0.2 and 3.5 SD of the protein, either way, in both replicates (recomputed)
Outline: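 Values are thermal stability changes relative to control samples and are taken from duplicates. They are stated as log2 fold changes. Before quantification by TMTpro 16plex LC-MS/MS with equalised channel sums, K562 cells at 2×10^6 cells/mL were treated with 10 μM compound for 30 min, heated in aliquots for 3 min across 48°C-58°C, pooled, extracted in PBS with 0.5% NP-40 at 4°C, and centrifuged at 21,000xg for 90 min to give the soluble supernatant.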

log2 fold change, inactive:
RMDN2 isoform 2 (UniProt Q96LZ7) 0.389, RERE (UniProt Q9P2R6) -0.29, RNF139 (UniProt Q8WU17) -0.001, RBMY1E (UniProt A6NEQ0) -0.035, RING1 (UniProt Q06587) 0, RHBDD2 isoform 2 (UniProt Q6NTF9) 0.116, RNASE4 (UniProt P34096) 0.022, RNF170 (UniProt Q96K19) 0.101, RGS14 (UniProt O43566) -0.289, RNF185 (UniProt Q96GF1) -0.145, RGP1 (UniProt Q92546) 0.095, RIMKLB (UniProt Q9ULI2) 0.743, RNF130 (UniProt Q86XS8) 0.001, RNASEL (UniProt Q05823) -0.179
